Laboratory results from patent US7579334B2, “Compounds with anti-inflammatory activity” (GlaxoSmithKline Istrazivacki Centar Zagreb, priority 2003, dated 2009).
Some results were stated once for a whole list of compounds, not compound by compound.

system: Mouse T-cell hybridoma 13; test: Inhibition of mouse T-cell hybridoma 13 proliferation as a result of apoptosis induction; type: cell-based; conditions: in the concentrations from 1 μM to 1 nM; [3H]thymidine incorporation

SMILES	inhibition of T-cell hybridoma 13 proliferation
CC[C@H]1OC(=O)[C@H](C)[C@@H](O)[C@H](C)[C@@H](O)[C@](C)(O)C[C@@H](C)CN(CCCOC(=O)[C@H]2[C@H](C)CC3C4CCC5=CC(=O)C=C[C@]5(C)[C@@]4(F)[C@@H](O)C[C@@]32C)[C@H](C)[C@@H](O)[C@]1(C)O (some centres unmarked) [Compound 8]	exhibit inhibition of T-cell hybridoma 13 proliferation
CC[C@H]1OC(=O)[C@H](C)[C@@H](O)[C@H](C)[C@@H](O)[C@](C)(O)C[C@@H](C)CN(CCCNC(=O)[C@@]2(O)CCC3C4CCC5=CC(=O)CC[C@]5(C)C4[C@@H](O)C[C@@]32C)[C@H](C)[C@@H](O)[C@]1(C)O (some centres unmarked) [Compound 5]	exhibit inhibition of T-cell hybridoma 13 proliferation
CC[C@H]1OC(=O)[C@H](C)[C@@H](O)[C@H](C)[C@@H](O)[C@](C)(O)C[C@@H](C)CN(CCCNC(=O)[C@@]23OC(C)(C)O[C@@H]2CC2C4C[C@H](F)C5=CC(=O)C=C[C@]5(C)[C@@]4(F)[C@@H](O)C[C@@]23C)[C@H](C)[C@@H](O)[C@]1(C)O (some centres unmarked) [Compound 6]	exhibit inhibition of T-cell hybridoma 13 proliferation
CC[C@H]1OC(=O)[C@H](C)[C@@H](O)[C@H](C)[C@@H](O)[C@](C)(O)C[C@@H](C)CN(CCCNC(=O)[C@@]2(OC)CCC3C4CCC5=CC(=O)C=C[C@]5(C)C4[C@@H](O)C[C@@]32C)[C@H](C)[C@@H](O)[C@]1(C)O (some centres unmarked) [Compound 4]	exhibit inhibition of T-cell hybridoma 13 proliferation
CC[C@H]1OC(=O)[C@H](C)[C@@H](O)[C@H](C)[C@@H](O)[C@](C)(O)C[C@@H](C)CN(CCCNC(=O)[C@H]2[C@H](C)CC3C4CCC5=CC(=O)C=C[C@]5(C)[C@@]4(F)[C@@H](O)C[C@@]32C)[C@H](C)[C@@H](O)[C@]1(C)O (some centres unmarked) [Compound 2]	exhibit inhibition of T-cell hybridoma 13 proliferation
